# ± gives the standard deviation. Only a part is listed here, and it is no random draw. The uncertainty is large for many entries.
# Test system: MIWI (PIWIL1) piRISC loaded with L1MC piRNA (30 nt)
# Test: pre-steady-state target cleavage rate (min^-1); MIWI and MILI are mouse PIWI proteins and EfPiwi is from a freshwater sponge; tags in brackets are library labels; higher = faster piRNA-guided slicing of the target
# Conditions: guide: L1MC piRNA 5'p-UAACUAAAUACUAUGCAAGCUGUAGGUCCU; auxiliary factor: none (no GTSF1)
# Procedure, shortened: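 At 33 °C in HEPES–potassium acetate buffer, a transcribed, DNA-blocked target RNA library […] was exposed for 0–8 or 0–960 min to 1 nM active affinity-purified piRISC carrying a single synthetic guide, with or without 500 nM GTSF1 partner protein. Uncleaved targets were sequenced and normalised to depth and to weakly complementary targets. With three trials pooled and k3 capped at 0.0001 min^-1, a burst-and-steady-state fit produced the pre-steady-state cleavage rate.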
# 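Further: 1 nM active piRISC with 0.1 nM target library at 33 °C single turnover.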
row,Sequence,pre-steady-state target cleavage rate
1,UCCACCUACAGCUUCGAUAGUAUUUACAAA,0.000198 ± 0.016
2,AGGACCUACAGCUUGCUAUGUAUUUUCAAA,0.000588 ± 0.012
3,UCCACCUACAGCAACCAUAGUAUUUUCAAA,0.00016 ± 0.021
4,AGGACCUACAGCUUGCAUUCAAUUUACAAA,0.000625 ± 0.012
5,UCCUGGAUGUCGAUGCAUAGUAAUUACUUA,0.000428 ± 0.015
6,UCCACCUACAGCUUGCAGUAGUAUUUAGUUA,0.000755 ± 0.011
7,UGGACCUACAGCUUGCAUAGUUUUUUCAAA,0.00132 ± 0.0059
8,UGGACCUACAGCUUGGUAAGUAUUUAGUAA,0.000474 ± 0.0072
9,UCGACCUACAGGAUGCAUAGUAUUUUCAAA,0.000697 ± 0.0074
10,UCCACCUACAGGAAGCAUAGUAUUUAGUAA,0.00171 ± 0.0019
11,UCCACCUACAGCUUGCAUUCUAUUUACAAA,0.000584 ± 0.0092
12,UCCACCUACAGCUUGCAUAGUAUAAAGAAA,0.00157 ± 0.0039
13,UGGACCUACAGCUUGCAUAGUUAAUACAAA,0.000381 ± 0.0067
14,UCGACCUACAGCUUGCAUACAAUUUUCAAA,0.0007 ± 0.011
15,UCCUGGUACAGCUUGCAUAGUAUUAUCAAA [g7:g24:cont:t1A],0.00257 ± 0.0033
16,AGGACCUACAGCUUGCAUACAUUUUAGAAA,0.000866 ± 0.0095
17,AGGACCUACAGCUUGCAUUAGUAUUUAGUUA,0.00148 ± 0.0055
18,UCCACCUACAGCUUGGUUAGUAUUUACAAA,0.000723 ± 0.0068
19,UCCACCUACAGCUACCAUAGUAUUUAGUAA,0.000918 ± 0.0062
20,UCGACCUACAGCUUGCAUAGAUAAAUCAAA [g11:g28:cont:t1A],0.000287 ± 0.013

row,Sequence,pre-steady-state target cleavage rate
1,UCCUGCUACAGCUUGCAUAGUAUAAUCAAA [g8:g25:cont:t1A],0.000937 ± 0.0091
2,AGGACCUACUCGUUGCAUAGUAUUUUCAAA,0.00192 ± 0.0023
3,AGGACCUACAGCUUGGUAAGUAUUUUCAAA,0.000275 ± 0.015
4,UGGACCUACACGUUGCAUAGUAUUUUCAAA,0.00119 ± 0.0043
5,UCCACCUACAGCUUGCAUAGUAUUUACAAA,0.00306 ± 0.0042
6,UCCUGGAUCAGCUUGCAUUCUAUUUACAAA,0.000263 ± 0.015
7,UCGACCUACAGCUUGCAUAGGUAUUUAGUUA,0.0013 ± 0.0057
8,UCGACCUACAGCUUCCAUAGUUUUUAGUUA,0.00125 ± 0.004
9,UCGACCUACAGCUUCGAUAGUAUUUUCAAA,0.000235 ± 0.015
10,UGGACCUAGUCCUUGCAUAGUAUUUACAAA,0.00159 ± 0.0019
11,AGGACCUACAGCUUCCAUAGUAUUUUGUUA,0.00147 ± 0.0051
12,UCGACCUACAGCUUGCAUUGUAUUUACAAA,0.00192 ± 0.0036
13,AGGACCUACAGCUUCGAUAGUAUUUAGAAA,0.000389 ± 0.0068
14,UCCUGGAUGAGCUUGCUAUCAUAAAUCAAA [g15:g21:cont:t1A],0.000352 ± 0.012
15,UCCUGGAUGUCGAACGAUAGUUUUUAGAUA,0.00026 ± 0.018
16,UCCACCUACUGCUUGCAUAGUAUUUUCAAA,0.00164 ± 0.0033
17,UCCACCAUGAGCUUGCAUAGUAUUUUCAAA,0.00191 ± 0.0025
18,UGGACCUACAGCUUGCAUUCAAUUUAGAAA,0.000239 ± 0.0084
19,UCGACCUACAGCUUGCAUAGAUAUUAGUAA,0.00072 ± 0.0075
20,UCCACCUACAGCUUGGUAAGUAUUUAGAAA,0.000282 ± 0.011

# 2 neighbouring records already listed:
row,Sequence,pre-steady-state target cleavage rate
18,UGGACCUACAGCUUGCAUUCAAUUUAGAAA,0.000239 ± 0.0084
19,UCGACCUACAGCUUGCAUAGAUAUUAGUAA,0.00072 ± 0.0075
